Data reported in paper PMC6102255, “EPO does not promote interaction between the erythropoietin and beta-common receptors” (Scientific Reports, 2018).
These are yes or no findings as the source states them, for the method shown. Sequences can lack the tags named with a protein.

T1: βc-His (extracellular regions of the βc receptor with C-terminal 6xHis tag) (UniProt P32927)
T1 sequence: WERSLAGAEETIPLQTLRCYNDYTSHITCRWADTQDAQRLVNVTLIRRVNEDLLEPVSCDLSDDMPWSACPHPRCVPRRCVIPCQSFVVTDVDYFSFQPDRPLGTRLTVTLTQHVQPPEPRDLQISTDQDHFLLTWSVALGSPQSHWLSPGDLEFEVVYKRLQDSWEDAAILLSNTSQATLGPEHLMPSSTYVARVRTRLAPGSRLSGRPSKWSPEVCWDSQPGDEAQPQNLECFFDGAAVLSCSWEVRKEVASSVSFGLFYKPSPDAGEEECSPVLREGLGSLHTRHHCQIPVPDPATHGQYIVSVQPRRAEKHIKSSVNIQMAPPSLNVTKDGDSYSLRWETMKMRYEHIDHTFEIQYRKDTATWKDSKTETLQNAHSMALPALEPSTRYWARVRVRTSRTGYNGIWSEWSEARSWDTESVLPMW

T2: EPOR-His (extracellular domains of EPOR with C-terminal 6xHis tag) (UniProt P19235)
T2 sequence: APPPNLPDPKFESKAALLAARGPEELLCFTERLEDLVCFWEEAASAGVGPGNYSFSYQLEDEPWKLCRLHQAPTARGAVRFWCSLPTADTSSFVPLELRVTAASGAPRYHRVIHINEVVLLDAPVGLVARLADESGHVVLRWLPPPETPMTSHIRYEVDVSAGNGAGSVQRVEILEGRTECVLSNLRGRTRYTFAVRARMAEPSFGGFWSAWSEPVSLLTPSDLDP


Assays:
[1] = target: T1, βc-His (extracellular regions of the βc receptor with C-terminal 6xHis tag); assay: pull-down; EPOR-His or βc-His held on His-tag purification resin, incubated with the untagged partner in the presence of ARA290 (1:3 molar ratio of immobilised protein:ARA290), 2 hr at room temperature; SDS-PAGE (coomassie) and mass spectrometry; both purified
[2] = target: T2, EPOR-His (extracellular domains of EPOR with C-terminal 6xHis tag); assay: pull-down; EPOR-His or βc-His (20 μg) held on His-tag purification resin, washed (50 mM phosphate, 300 mM NaCl, 5 mM imidazole, pH 8), incubated 2 hr at room temperature with the untagged partner or with ARA290 alone; SDS-PAGE (coomassie) and mass spectrometry; both purified
[3] = target: T2, EPOR-His (extracellular domains of EPOR with C-terminal 6xHis tag); assay: pull-down; EPOR-His or βc-His held on His-tag purification resin, incubated with the untagged partner in the presence of ARA290 (1:3 molar ratio of immobilised protein:ARA290), 2 hr at room temperature; SDS-PAGE (coomassie) and mass spectrometry; both purified
[4] = target: T1, βc-His (extracellular regions of the βc receptor with C-terminal 6xHis tag); assay: pull-down; EPOR-His or βc-His (20 μg) held on His-tag purification resin, washed (50 mM phosphate, 300 mM NaCl, 5 mM imidazole, pH 8), incubated 2 hr at room temperature with the untagged partner or with ARA290 alone; SDS-PAGE (coomassie) and mass spectrometry; both purified

binding [1]	binding [2]	binding [3]	binding [4]	Binder
no binding	–	–	–	EPOR extracellular domains, His tag cleaved by TEV protease (domain or fragment, UniProt P19235 25-250) APPPNLPDPKFESKAALLAARGPEELLCFTERLEDLVCFWEEAASAGVGPGNYSFSYQLEDEPWKLCRLHQAPTARGAVRFWCSLPTADTSSFVPLELRVTAASGAPRYHRVIHINEVVLLDAPVGLVARLADESGHVVLRWLPPPETPMTSHIRYEVDVSAGNGAGSVQRVEILEGRTECVLSNLRGRTRYTFAVRARMAEPSFGGFWSAWSEPVSLLTPSDLDP
–	no binding	no binding	–	βc receptor extracellular regions, His tag cleaved by TEV protease (domain or fragment, UniProt P32927 17-443) WERSLAGAEETIPLQTLRCYNDYTSHITCRWADTQDAQRLVNVTLIRRVNEDLLEPVSCDLSDDMPWSACPHPRCVPRRCVIPCQSFVVTDVDYFSFQPDRPLGTRLTVTLTQHVQPPEPRDLQISTDQDHFLLTWSVALGSPQSHWLSPGDLEFEVVYKRLQDSWEDAAILLSNTSQATLGPEHLMPSSTYVARVRTRLAPGSRLSGRPSKWSPEVCWDSQPGDEAQPQNLECFFDGAAVLSCSWEVRKEVASSVSFGLFYKPSPDAGEEECSPVLREGLGSLHTRHHCQIPVPDPATHGQYIVSVQPRRAEKHIKSSVNIQMAPPSLNVTKDGDSYSLRWETMKMRYEHIDHTFEIQYRKDTATWKDSKTETLQNAHSMALPALEPSTRYWARVRVRTSRTGYNGIWSEWSEARSWDTESVLPMW
–	no binding	–	no binding	EQLERALNSS (pyroglutamic acid (pE) at the N-terminus) [ARA290 peptide]
